From patent EP1693059A1, “Use of rocaglamide derivatives as NF-AT-specific inhibitors for the treatment of certain inflammatory diseases” (Deutsches Krebsforschungszentrum, priority 2005, dated 2006)
At least one compound was matched to its structure with a doubt left.

Legend:
ERK = details: PMA/ionomycin-activated Jurkat, Fig. 8C
NF-kappa B subunit p65 = assay: Immunoblot of nuclear NF-kappa B subunit p65 in activated Jurkat T cells; type: cell-based, human; details: PMA/ionomycin-activated Jurkat, Fig. 8E
Method: Many inflammatory cytokine genes are transcriptionally activated by the inducible, ubiquitous transcription factors NF-AT, AP-1 and NF-kappa B (Tsai et al., 1996; Sica et al., 1997; Falvo et al., 2000; Macian et aL, 2001; Kaminuma et al., 2002; Li-Weber & Krammer, 2003). Therefore, we first examined the effect of the rocagtamide derivatives on nuclear expression levels of NF-AT, the AP-1 subunit c-Jun, and the NF-kappa B subunit p65 in activated T cells. Nuclear proteins were prepared from Jurkat T cells, stimulated by PMA/iouomycin for 2 h in the presence or absence of different doses of rocaglamides. […] CsA is a well known immunosuppressive reagent that targets NF-AT activity.

NF-AT = details: PMA/ionomycin-activated Jurkat, 100 nM Roc-1 plus p38/JNK inhibitor

## Oc1c2ccccc2c2c3c(cccc13)N=N2 [SP 600125, reference compound]
ERK
  phosphorylation of ERK: have no effect on ERK activities
NF-kappa B subunit p65
  nuclear levels of the NF-kappa B subunit p65: not affected
NF-AT
  rocaglamide-mediated reduction in NF-AT proteins in the nucleus: prevention of rocaglamide-mediated reduction in NF-AT proteins in the nucleus
